SMILES strings stand for the structures. The list shows a part of the results. The main result of the screen is listed elsewhere. These columns were measured beside it and carry no call. Most of these compounds were active or inconclusive in the main read-out, so they are no random draw. Words in brackets tell the shape of the fitted curve; partial curves, single points and poor fits give uncertain potencies.

The nature of this test: qHTS Assay for Lipid Storage Modulators in Drosophila S3 Cells.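 For cell number change: cells counted by Cell Tracker Red CMTPX staining in the red channel.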 The settings on record: BODIPY lipid droplet fluorescence, 18-24 h; for cell number change: measured here: cell count max response, cells fed with added oleic acid. An outline of the steps:
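Drosophila S3 cells loaded with oleic acid (400 uM, as added) and compounds at several concentrations; lipid droplets imaged by 488-nm laser-scanning cytometry, 500–530 nm intensity and object ratio to cell channel. Percent activity normalized to 20 uM Triacsin C.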
Background: In qHTS, concentration-response curves come from the screen itself.

The mark [1] stands for this setting: measured here: lipid fluorescence (Fed channel) AC50, cells fed with added oleic acid.
Where [2] appears, read: measured here: cell number channel AC50, cells fed with added oleic acid.

`CNC(=S)N/N=C/c1c(C)cccc1Cl`: under setting [1], the AC50 (in general, the concentration at which the activity in the assay is half-maximal) is 0.116 µM [rising, single point]. With `O=C(CNc1ccc(C(F)(F)F)cc1)Nc1cccc(S(=O)(=O)N2CCCC2)c1`, the cell number change is -10.3%. Also, the AC50 under setting [2] is 2.31 µM [falling, partial curve, poor fit]. In addition, the AC50 under setting [1] is 1.84 µM [falling, partial curve, poor fit]. Consider `CNc1ccc(/C=C(\C#N)c2ccccn2)cc1[N+](=O)[O-]`, for which the cell number change was determined as 57.8%. Under setting [2], the AC50 is 18.4 µM [rising, single point]. Also, the AC50 under setting [1] is 18.4 µM [rising, single point]. On to `NS(=O)(=O)c1ccc(NC(=O)CN2CCCc3ccccc32)cc1`, for which the cell number change turned out to be 49.2%. Under setting [2], the AC50 was 23.1 µM [rising, single point]. Regarding `Cc1c(Cl)cccc1NC(=O)CSc1ncnc2c1cnn2CCO`, under setting [1], the AC50 was 0.58 µM [rising, single point]. Consider `CCOC(=O)NNC(=O)C12CC3CC(CC(C3)C1)C2`, for which the cell number change is -57.3%.

Take `COc1cccc(-n2cnc3sc(C)cc3c2=O)c1`: the cell number change came out at 4.27%. With `CN(CC(=O)Nc1ccccc1Br)C(=O)c1ccccc1Cc1ccccc1`, the cell number change was -11.3%. The AC50 under setting [1] was 1.16 µM [falling, full curve, poor fit].

With `Fc1ccc(Cn2nnnc2CN2CCN(C3CCCC3)CC2)cc1`, the cell number change was found to be 5.6%. The AC50 under setting [1] is 20.6 µM [falling, partial curve]. With `CN(C)C(=O)NC(Nc1cccc([N+](=O)[O-])c1)C(Cl)(Cl)Cl` (configuration not stated), the cell number change was determined as 14.2%. The half-maximal activity concentration (AC50) under setting [2] is 6.51 µM [falling, single point]. In the case of `Cc1ccccc1NC(=S)N(CCN(C)C)C(C)c1cccnc1` (configuration not stated), the cell number change is -6.86%. Also, under setting [2], the concentration at half-maximal activity (AC50) was 0.651 µM [rising, full curve, poor fit]. The AC50 under setting [1] is 1.84 µM [rising, full curve, poor fit].

Consider `O=C1C2CCCN2C(c2ccc(F)cc2)N1c1ccc(Cl)cc1` (configuration not stated), for which the AC50 under setting [2] is 0.103 µM [rising, full curve, poor fit]. Turning to `CCOc1ccc(Nc2oc(-c3ccco3)nc2C#N)cc1`, the cell number change stood at 5.23%. Moreover, under setting [2], the AC50 was 0.0082 µM [falling, full curve, poor fit]. Moreover, the AC50 under setting [1] was 7.31 µM [falling, single point]. Consider `S=c1[nH]nc(-c2ccc(Cl)cc2)n1-c1ccc2c(c1)OCCO2`, for which the cell number change was -3.83%. Also, the concentration at half-maximal activity (AC50) under setting [1] is 29.1 µM [rising, single point]. On to `CC1CCCC(NC(=O)CSc2nncs2)C1C` (configuration not stated), for which the cell number change is -10%. Moreover, the concentration at half-maximal activity (AC50) under setting [1] was 0.00517 µM [rising, full curve, poor fit].

For `CC1(C)CC(=O)C(C=NCCN2CCN(C(=O)CCl)CC2)=C(O)C1`, the cell number change is -25.3%. Take `CNC(=O)C1CC(=O)N(c2ccc(OCC(=O)Nc3ccc(OC)cc3)cc2)C1` (configuration not stated): the cell number change is 14.6%. Moreover, under setting [1], the AC50 is 29.1 µM [rising, single point]. With `Cc1cc(N2CCOCC2)c2c(N)c(Br)cc(C)c2n1`, the cell number change was -12%.

For `CCC1CN(C(=O)NCc2ccc(C)cc2)c2cc(Cl)ccc2O1` (configuration not stated), the cell number change was determined as 5.67%. For `COc1cccc(CNC(=O)c2ccc(S(=O)(=O)N3CCOCC3)cc2)c1`, the cell number change is 32.5%. Moreover, under setting [2], the AC50 is 29.1 µM [rising, single point].

For the compound `Cc1ccc(C(=O)NN2C(=O)CSC2=S)cc1`, the cell number change was 11.2%. For the same compound, the AC50 under setting [1] is 0.0651 µM [rising, full curve]. For the compound `O=[N+]([O-])c1cccc(-c2ccc(CN3CCCCC3)o2)c1`, the cell number change was -13.8%. On to `COc1ccc(N2CCN(C(=O)CN3C(=O)NC(c4ccc(OC)cc4)(c4ccc(OC)cc4)C3=O)CC2)cc1`, for which the cell number change came out at 31.4%.

In the case of `Cc1cccnc1NC(=O)c1c(O)c2ccccc2n(C)c1=O`, the AC50 reads like this: under setting [2], 0.517 µM [rising, partial curve]; under setting [1], 1.46 µM [rising, partial curve].

As to `Cc1ccccc1OC(=O)CCC(=O)OCCCC(F)(F)C(F)(F)F`, the half-maximal activity concentration (AC50) under setting [1] was 29.1 µM [falling, partial curve]. Regarding `CN(C)CCNC(=O)COc1ccc(C23CC4CC(CC(C4)C2)C3)cc1`, the cell number change turned out to be 8.93%. The AC50 under setting [1] is 29.1 µM [rising, single point]. Take `Cc1ccc(NS(=O)(=O)c2ccccc2F)cc1S(=O)(=O)N1CCCCCC1`: under setting [2], the AC50 was 0.116 µM [falling, full curve, poor fit]. Regarding `Cn1cccc1-c1nc2ccc(NC(=O)c3cccs3)cc2[nH]1`, the cell number change was 103%. The AC50 under setting [2] is 6.51 µM [rising, partial curve]. For the same compound, the AC50 under setting [1] was 7.31 µM [rising, partial curve]. Take `CCCC(=O)C1=C(c2ccccc2)C(C#N)(C#N)C(C#N)=C1N`: the cell number change came out at 11.6%. Besides, under setting [1], the AC50 is 2.31 µM [rising, partial curve]. Consider `COc1ccccc1CC(=O)N1CCN(c2ccccc2)CC1`, for which the cell number change was -3.88%. Consider `C=COCCn1c(=N)n(CCC)c2ccccc21`, for which the cell number change is 9.83%. Also, under setting [1], the AC50 was 1.03 µM [rising, full curve, poor fit].

As for `CN(C)C(=O)CSc1nnc(CCNC(=O)OC(C)(C)C)o1`, the cell number change came out at 2.55%. For the same compound, the AC50 under setting [1] was 0.00517 µM [rising, full curve, poor fit].

As for `CC1CCCCC12NC(=O)N(CC(=O)N1CCN(C(=O)c3cccs3)CC1)C2=O` (configuration not stated), the cell number change was -36.7%. Besides, the AC50 under setting [2] is 4.61 µM [falling, full curve]. The AC50 under setting [1] is 1.84 µM [falling, full curve]. For `CC(C)CC(=O)Nc1nnc(SCC(=O)Nc2nccs2)s1`, the cell number change turned out to be 4.96%. The AC50 under setting [1] is 0.164 µM [rising, full curve]. With `NNC(=O)CCn1c2ccccc2c2ccccc21`, the cell number change was -2.35%. Further, under setting [1], the AC50 is 0.92 µM [falling, full curve].

As to `CC1CN(c2ccccc2)C(=O)CS1` (configuration not stated), the cell number change came out at 1.96%. Under setting [1], the AC50 is 0.00461 µM [falling, full curve].

Take `COc1cccc(NC(=O)c2cc(-c3ccccn3)nc3ccccc23)c1`: the cell number change was 13.5%. Moreover, the AC50 under setting [2] is 0.82 µM [rising, partial curve]. Consider `Cc1ccc2c3c(c(SCC(=O)Nc4nonc4C)nc2c1)CCCC3`, for which the cell number change stood at 16.5%. In the case of `CCOC(CCn1ccc(O)c(Cc2ccc(Cl)cc2)c1=O)OCC`, the cell number change is -31.8%. Further, the AC50 under setting [2] was 23.1 µM [falling, single point]. In addition, the AC50 under setting [1] was 10.3 µM [falling, partial curve, poor fit].

For the compound `CSc1nnc(-c2nnc(SC)n2-c2ccccc2)n1-c1ccccc1`, the AC50 under setting [1] is 3.26 µM [falling, partial curve]. Consider `CCCCNCc1cc(OCC)c(OCC)cc1Br`, for which the cell number change is 49.4%. In addition, the AC50 under setting [2] was 7.31 µM [rising, partial curve, poor fit]. Also, the AC50 under setting [1] was 9.2 µM [rising, partial curve, poor fit]. Turning to `Cc1ccccc1NC(=O)NCCCCc1ccccc1`, the cell number change amounted to 19.2%. The AC50 under setting [1] is 1.41 µM [rising, partial curve]. Regarding `CCOC(=O)N1CCN(C(=O)Cn2c(=O)sc3ccccc32)CC1`, the cell number change is 33.6%. Also, the AC50 under setting [2] was 14.6 µM [rising, single point]. In addition, the AC50 under setting [1] was 0.0731 µM [falling, full curve, poor fit].

Regarding `O=C(NCC1CCCO1)c1coc2nc3ccccc3nc12` (configuration not stated), the cell number change is -14.6%. The AC50 under setting [1] was 6.51 µM [rising, single point]. On to `COc1ccc(C)cc1NC(=O)C(=O)c1cn(CC(=O)N2CCCC2)c2ccccc12`, for which the cell number change is -32.1%. Besides, the half-maximal activity concentration (AC50) under setting [2] is 2.31 µM [falling, full curve, poor fit]. Besides, under setting [1], the AC50 was 4.11 µM [falling, single point]. Consider `CC(=O)c1cccc(NC(=O)C2C3C=CC(C3)C2C(=O)O)c1` (configuration not stated), for which the cell number change was 8.65%. Also, the half-maximal activity concentration (AC50) under setting [1] is 32.6 µM [rising, single point].

As for `COCCNC(=O)c1ccc(C(=O)C(=O)c2ccccc2)cc1`, the cell number change stood at 36.7%. Further, the AC50 under setting [1] is 29.1 µM [rising, single point]. `Cc1c(CC(=O)N2CCN(C(=O)C3COc4ccccc4O3)CC2)c(=O)oc2cc(O)ccc12` (configuration not stated): the cell number change was -18%. For the compound `O=C(NCSc1ccnc(SCNC(=O)c2ccccc2)n1)c1ccccc1`, the cell number change is -39.5%. In addition, the AC50 under setting [2] is 29.1 µM [falling, single point]. Moreover, the AC50 under setting [1] is 29.1 µM [falling, single point]. For `Cc1ccc(C)c(NC(=O)CSc2nnc(C3CCCCC3)o2)c1`, the cell number change is 27.9%. For the same compound, the concentration at half-maximal activity (AC50) under setting [1] is 2.59 µM [rising, partial curve].

Turning to `O=C(COC(=O)/C=C/c1ccc([N+](=O)[O-])cc1)Nc1ccc2[nH]c(=O)[nH]c2c1`, the cell number change is -9.93%. Also, under setting [1], the AC50 was 20.6 µM [rising, partial curve].

As for `Cn1cc(C2=C(c3ccc(Cl)cc3Cl)C(=O)NC2=O)c2ccccc21`, the cell number change was -77.4%. In addition, the AC50 under setting [2] was 29.1 µM [falling, single point]. For the same compound, under setting [1], the AC50 is 18.4 µM [falling, partial curve]. For the compound `COc1ccc(NC(=O)CN(C)C(=O)c2cccc3ccccc23)cc1`, the cell number change was -25%. The AC50 under setting [1] was 0.517 µM [rising, full curve]. With `Cc1ccc(/C=N/Nc2nncn2N)cc1`, the cell number change is -10.7%. For the same compound, the AC50 under setting [1] is 16.4 µM [falling, single point]. Turning to `Cc1cc(C(=O)NNC(=O)c2ccc(NC(=O)CC#N)cc2)c(C)o1`, the cell number change was determined as 1.51%. Turning to `O=[N+]([O-])C(=C1Nc2ccccc2N1)C(Cl)=C(Cl)Cl`, the cell number change was -25.5%. In addition, under setting [1], the AC50 was 0.184 µM [falling, full curve, poor fit]. As for `CC1C(=O)C(C)C(c2ccccc2F)NC1c1ccccc1F` (configuration not stated), the cell number change was 34.5%. Moreover, the AC50 under setting [2] is 18.4 µM [rising, single point]. On to `Cn1c(=O)n(CC(N)=O)c2ccccc21`, for which the cell number change is -7.57%. In addition, under setting [1], the AC50 is 29.1 µM [falling, single point]. For the compound `COc1ccc2c(c1)CCc1c(C(=O)Nc3c(C)n(C)n(-c4ccccc4)c3=O)noc1-2`, the cell number change turned out to be 34.8%. The AC50 under setting [2] is 9.2 µM [rising, partial curve, poor fit]. Take `Cc1ccc(CSCCNC(=O)/C=C/c2ccccc2Cl)cc1`: the cell number change is -23.7%. Also, under setting [2], the AC50 was 0.146 µM [falling, full curve, poor fit]. Take `CCN(CC)CCn1c(NC(=O)c2ccc(Cl)cc2)nc2ccccc21`: the AC50 under setting [1] is 0.13 µM [falling, full curve, poor fit]. As for `CC1CCN(C(=O)c2ccc(NC(=O)c3ccccc3)cc2)CC1`, the cell number change is -4.4%.

Source of the values: PubChem BioAssay AID2685 (National Center for Advancing Translational Sciences (NCATS), 2010).
